In CN112300289A:
These are yes or no findings as the source states them, for the method shown. A result given as binding can be weak or reduced; the word gives no strength. Sequences can lack the tags named with a protein.

Target: TNFα
Experiment: concluded from the L929 cytotoxicity assay; no direct binding assay

B1: RGD4C融合抗TNFα纳米抗体 N端-VHH-Linker-RGD4C-6HIS-C端 (VHH)
VHH: QVQLVESGGGLVQAGGSLRLSCTASGQTSSTADMGWFRQPPGKGREFVARISGIDGTTYYDEPVKGRFTISRDKAQNTVYLQMDSLKPEDTAVYYCRSPRYADQWSAYDYWGQGTQVTVSS
binding: binds
